Source: the supplement of paper PMC6078165

Test system: MDAMB436
Assay: relative JC-1 red fluorescence (viability) vs pre-drug, coculture with fibroblast (fraction); higher = more viable cancer cells
Conditions: 10 µM
Method: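 JC-1 labelled TNBC cells cocultured 1:1 (1,500 cells each) with CellTrace Violet stained primary or stromal fibroblasts in 384-well plates in FluoroBrite medium, treated with one of 42 anticancer drugs at 0.1, 1, 10 or 100 uM. JC-1 red fluorescence (mitochondrial integrity in cancer cells only) was read by plate reader every 8 h for 72 h. Values are normalised to each well's pre-drug value. The stock of one drug was tenfold lower, so its dose labels may be too high.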

O=C(O)C(=O)O.[NH-][C@@H]1CCCC[C@H]1[NH-].[Pt+2] [Oxaliplatin]
relative JC-1 red fluorescence
Conditions	8 h	16 h	24 h	32 h	40 h	48 h	56 h	64 h	72 h
coculture fibroblast: C12385	0.762	0.6941	0.66	0.58	0.538	0.507	0.486	0.471	0.461
coculture fibroblast: H6013	0.8037	0.7663	0.755	0.75	0.736	0.762	0.731	0.721	0.688
coculture fibroblast: H6019	0.764	0.719	0.723	0.664	0.643	0.632	0.622	0.613	0.593
coculture fibroblast: H6076	0.676	0.6229	0.618	0.581	0.593	0.577	0.59979	0.602	0.6
coculture fibroblast: H6231	0.703	0.585	0.656	0.578	0.583	0.565	0.569	0.557	0.555
coculture fibroblast: HADF	0.79	0.771	0.75	0.722	0.72	0.758	0.703	0.686	0.646
coculture fibroblast: HCFa	0.768	0.717	0.683	0.646	0.619	0.639	0.573	0.565	0.506
coculture fibroblast: HCPF	0.661	0.628	0.635	0.568	0.568	0.535	0.527	0.51	0.505
coculture fibroblast: HHSteC	0.787	0.787	0.771	0.743	0.752	0.778	0.722	0.705	0.645
coculture fibroblast: HMF	0.673	0.6603	0.675	0.6376	0.646	0.619	0.63	0.612	0.604
coculture fibroblast: HPFa	0.912	0.865	0.838	0.8014	0.7929	0.796	0.737	0.721	0.665
coculture fibroblast: HUF	0.81	0.7209	0.6782	0.609	0.557	0.529	0.507	0.497	0.485
coculture fibroblast: Hs5	0.706	0.646	0.616	0.565	0.553	0.512	0.527	0.503	0.502
coculture fibroblast: Hs27A	0.846	0.764	0.739	0.714	0.693	0.749	0.667	0.662	0.595
coculture fibroblast: Hs343T	0.675	0.5941	0.5508	0.4993	0.477	0.452	0.454	0.441	0.437
coculture fibroblast: WS1	0.766	0.693	0.6555	0.571	0.5353	0.5126	0.495	0.473	0.461

The reference is the same well before dosing, and untreated signal decays as well.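 Fibroblast labels denote human fibroblasts, mainly primary ones from uterus (C12385, HUF), lung (H6013), bone (Hs27A), adrenal (HADF) and skin (WS1), plus mammary HMF and breast cancer-associated Hs343T. Cancer cells are basal-like or mesenchymal-like triple-negative breast cancer lines. A hit is a response shift exceeding 3x replicate standard deviation. The tissue of the other fibroblasts is not given here.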
